In publication PMC10675785, “(L)-Monomethyl Tyrosine (Mmt): New Synthetic Strategy via Bulky ‘Forced-Traceless’ Regioselective Pd-Catalyzed C(sp^2)–H Activation” (Pharmaceuticals, 2023):
Structures were worked out from names or drawings and are uncertain.

By UniProt entry, the sequences of proteins in these tests, tags left out.
UniProt P41146, whole entry: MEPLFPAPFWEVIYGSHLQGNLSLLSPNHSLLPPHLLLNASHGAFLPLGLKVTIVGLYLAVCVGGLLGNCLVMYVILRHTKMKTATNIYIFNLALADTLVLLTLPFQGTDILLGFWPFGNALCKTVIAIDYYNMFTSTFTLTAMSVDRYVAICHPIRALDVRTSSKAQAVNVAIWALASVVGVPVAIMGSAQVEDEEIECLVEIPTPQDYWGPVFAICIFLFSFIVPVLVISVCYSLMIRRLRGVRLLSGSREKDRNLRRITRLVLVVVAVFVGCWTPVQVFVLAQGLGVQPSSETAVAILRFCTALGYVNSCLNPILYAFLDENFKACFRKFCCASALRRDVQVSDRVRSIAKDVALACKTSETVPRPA

Molecular target: human NOP receptor (Homo sapiens, UniProt P41146)
Assay: Calcium mobilization assay in CHO cells stably coexpressing the NOP receptor and the Gαqi5 chimeric G protein
Settings: CHOhNOP + Gαqi5 cells

## Cc1cc(O)ccc1C[C@H](N)C(=O)NCC(=O)NCC(=O)N[C@@H](Cc1ccccc1)C(=O)N[C@H](C(=O)NCC(=O)N[C@@H](C)C(=O)N[C@@H](CCCNC(=N)N)C(=O)N[C@@H](CCCCN)C(=O)N[C@@H](CO)C(=O)N[C@@H](C)C(=O)N[C@@H](CCCNC(=N)N)C(=O)N[C@@H](CCCCN)C(N)=O)[C@@H](C)O
Fluo-4 AM, FlexStation II, 37 °C, four-parameter logistic fit, mean of 5 or at least 6 experiments in duplicate
  pEC50 (CL95%): 9.47 (8.92–10.01)
Calcium mobilization
  fold more potent than the Dmt derivative [Dmt^1]N/OFQ(1-13)-NH2: 10 fold
